The target in this test is T1, FLAG-CPVL (carboxypeptidase, vitellogenic-like) (human) (UniProt Q9H3G5).
T1 sequence: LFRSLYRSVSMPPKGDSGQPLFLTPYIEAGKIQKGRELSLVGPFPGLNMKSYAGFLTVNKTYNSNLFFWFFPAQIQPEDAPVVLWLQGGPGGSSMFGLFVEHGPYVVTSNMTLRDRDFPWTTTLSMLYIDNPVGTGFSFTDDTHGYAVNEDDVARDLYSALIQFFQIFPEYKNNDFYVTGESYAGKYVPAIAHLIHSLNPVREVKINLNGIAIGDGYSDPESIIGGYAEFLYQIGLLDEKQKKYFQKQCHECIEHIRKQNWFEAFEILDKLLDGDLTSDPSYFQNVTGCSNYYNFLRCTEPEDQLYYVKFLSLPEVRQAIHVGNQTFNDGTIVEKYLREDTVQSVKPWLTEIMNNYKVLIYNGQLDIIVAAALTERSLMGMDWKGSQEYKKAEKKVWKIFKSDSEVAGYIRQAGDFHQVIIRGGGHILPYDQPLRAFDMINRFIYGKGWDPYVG
In words: affinity purification with mass spectrometry; lysate of about 5 x 10^8 U251 cells stably expressing FLAG-CPVL on an anti-FLAG M2 column; washed with BC500 (50 mM Tris, 2 mM EDTA, 500 mM KCl, 10% glycerol); eluted with FLAG peptide; SDS-PAGE, silver stain, LC-MS/MS.

By UniProt entry, the sequences of proteins in these tests, tags left out.
UniProt O60828: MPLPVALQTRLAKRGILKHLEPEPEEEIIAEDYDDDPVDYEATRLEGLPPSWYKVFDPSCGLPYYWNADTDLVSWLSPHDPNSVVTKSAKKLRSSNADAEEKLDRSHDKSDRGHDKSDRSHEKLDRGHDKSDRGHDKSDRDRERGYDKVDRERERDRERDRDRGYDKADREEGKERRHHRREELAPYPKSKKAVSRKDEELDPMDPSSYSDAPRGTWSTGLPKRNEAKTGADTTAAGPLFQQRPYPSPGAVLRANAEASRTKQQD
UniProt Q06187: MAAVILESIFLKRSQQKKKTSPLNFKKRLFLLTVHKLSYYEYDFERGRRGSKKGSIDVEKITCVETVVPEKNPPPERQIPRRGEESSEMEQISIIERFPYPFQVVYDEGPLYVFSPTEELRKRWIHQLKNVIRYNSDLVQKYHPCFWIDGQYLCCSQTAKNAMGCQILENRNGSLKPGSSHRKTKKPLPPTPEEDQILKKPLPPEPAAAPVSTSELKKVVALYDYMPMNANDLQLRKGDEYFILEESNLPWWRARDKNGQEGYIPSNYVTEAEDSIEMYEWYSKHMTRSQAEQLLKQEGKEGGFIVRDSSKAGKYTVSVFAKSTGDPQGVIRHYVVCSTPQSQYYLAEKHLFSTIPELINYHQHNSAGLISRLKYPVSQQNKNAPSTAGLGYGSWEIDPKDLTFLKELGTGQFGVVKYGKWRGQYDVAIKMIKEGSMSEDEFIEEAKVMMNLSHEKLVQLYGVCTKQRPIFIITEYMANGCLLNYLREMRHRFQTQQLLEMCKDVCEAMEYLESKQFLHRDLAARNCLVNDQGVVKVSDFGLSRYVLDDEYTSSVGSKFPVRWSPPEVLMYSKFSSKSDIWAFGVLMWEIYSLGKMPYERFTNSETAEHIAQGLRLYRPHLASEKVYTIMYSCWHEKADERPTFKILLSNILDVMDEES

These are yes or no findings as the source states them, for the method shown. Binding seen in cells or lysates may run through a third protein. Here binding means that the protein was enriched with, or labelled near, the bait; the list need not be complete. Sequences can lack the tags named with a protein.

Turning to PQBP1 (from UniProt O60828 1-265), the binding entry is reported as “binds”. For the molecule “Bruton's tyrosine kinase (BTK) (from UniProt Q06187 1-659) (enzyme)”, the binding result is recorded as “binds”.

B1: MICA (protein, UniProt Q29983 24-383)
chain: EPHSLRYNLTVLSWDGSVQSGFLTEVHLDGQPFLRCDRQKCRAKPQGQWAEDVLGNKTWDRETRDLTGNGKDLRMTLAHIKDQKEGLHSLQEIRVCEIHEDNSTRSSQHFYYDGELFLSQNLETKEWTMPQSSRAQTLAMNVRNFLKEDAMKTKTHYHAMHADCLQELRRYLKSGVVLRRTVPPMVNVTRSEASEGNITVTCRASGFYPWNITLSWRQDGVSLSHDTQQWGDVLPDGNGTYQTWVATRICQGEEQRFTCYMEHSGNHSTHPVPSGKVLVLQSHWQTFHVSAVAAAAIFVIIIFYVRCCKKKTSAAEGPELVSLQVLDQHPVGTSDHRDATQLGFQPLMSDLGSTGSTEGA
With B1, the binding result is “binds”.
